Results published in PMC12208556.
Results are given in words; binding and its absence hold for the method and conditions named. Some binding calls cover weakened binding; strength is not graded here.

Protein sequences, listed by entry. Tags and fused reporters are not part of them. Lines headed by an entry give the natural chain unless they say otherwise; changes in a name come on top. Residues count along the entry.
UniProt P01031: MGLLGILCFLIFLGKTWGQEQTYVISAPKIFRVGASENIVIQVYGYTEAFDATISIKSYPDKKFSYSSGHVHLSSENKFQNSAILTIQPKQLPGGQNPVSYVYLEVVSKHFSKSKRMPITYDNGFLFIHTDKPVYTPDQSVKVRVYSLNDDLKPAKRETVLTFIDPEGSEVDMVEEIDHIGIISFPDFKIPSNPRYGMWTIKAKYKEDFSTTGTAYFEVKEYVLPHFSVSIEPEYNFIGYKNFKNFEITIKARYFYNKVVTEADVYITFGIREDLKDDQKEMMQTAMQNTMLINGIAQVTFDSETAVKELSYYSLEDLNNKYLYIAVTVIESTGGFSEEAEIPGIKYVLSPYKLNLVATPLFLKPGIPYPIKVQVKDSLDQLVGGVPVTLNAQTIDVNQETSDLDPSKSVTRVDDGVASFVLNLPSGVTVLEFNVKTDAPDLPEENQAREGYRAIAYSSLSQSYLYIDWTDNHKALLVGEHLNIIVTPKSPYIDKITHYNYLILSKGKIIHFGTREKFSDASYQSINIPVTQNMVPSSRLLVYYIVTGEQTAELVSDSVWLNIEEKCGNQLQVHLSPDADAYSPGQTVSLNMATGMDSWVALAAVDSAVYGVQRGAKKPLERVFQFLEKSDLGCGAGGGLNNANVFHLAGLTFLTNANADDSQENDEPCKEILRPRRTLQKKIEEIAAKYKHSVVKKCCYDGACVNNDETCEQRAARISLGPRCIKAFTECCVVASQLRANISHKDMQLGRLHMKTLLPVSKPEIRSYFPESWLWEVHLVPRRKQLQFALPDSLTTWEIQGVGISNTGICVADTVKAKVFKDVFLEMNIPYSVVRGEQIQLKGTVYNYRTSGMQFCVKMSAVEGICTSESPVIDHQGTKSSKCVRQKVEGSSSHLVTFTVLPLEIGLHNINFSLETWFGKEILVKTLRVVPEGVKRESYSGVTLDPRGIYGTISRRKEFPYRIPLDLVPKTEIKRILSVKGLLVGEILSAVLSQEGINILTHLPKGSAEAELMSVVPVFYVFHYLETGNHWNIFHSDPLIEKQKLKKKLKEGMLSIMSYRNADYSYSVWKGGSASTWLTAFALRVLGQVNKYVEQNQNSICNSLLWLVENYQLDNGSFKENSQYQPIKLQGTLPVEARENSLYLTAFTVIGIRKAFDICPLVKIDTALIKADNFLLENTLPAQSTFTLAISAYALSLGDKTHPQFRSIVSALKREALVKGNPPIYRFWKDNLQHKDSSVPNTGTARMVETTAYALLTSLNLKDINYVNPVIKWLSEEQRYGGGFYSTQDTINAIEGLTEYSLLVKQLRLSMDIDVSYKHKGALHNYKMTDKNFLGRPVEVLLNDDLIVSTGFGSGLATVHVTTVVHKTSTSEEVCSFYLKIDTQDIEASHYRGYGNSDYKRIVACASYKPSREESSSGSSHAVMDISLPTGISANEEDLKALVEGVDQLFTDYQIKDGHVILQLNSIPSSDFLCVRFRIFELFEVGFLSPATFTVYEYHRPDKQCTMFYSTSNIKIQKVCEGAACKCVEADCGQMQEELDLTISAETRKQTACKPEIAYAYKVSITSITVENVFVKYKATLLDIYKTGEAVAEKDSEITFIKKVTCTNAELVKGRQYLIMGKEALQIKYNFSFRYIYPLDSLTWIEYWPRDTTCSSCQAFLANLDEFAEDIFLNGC
UniProt P08603, residues 19-1231: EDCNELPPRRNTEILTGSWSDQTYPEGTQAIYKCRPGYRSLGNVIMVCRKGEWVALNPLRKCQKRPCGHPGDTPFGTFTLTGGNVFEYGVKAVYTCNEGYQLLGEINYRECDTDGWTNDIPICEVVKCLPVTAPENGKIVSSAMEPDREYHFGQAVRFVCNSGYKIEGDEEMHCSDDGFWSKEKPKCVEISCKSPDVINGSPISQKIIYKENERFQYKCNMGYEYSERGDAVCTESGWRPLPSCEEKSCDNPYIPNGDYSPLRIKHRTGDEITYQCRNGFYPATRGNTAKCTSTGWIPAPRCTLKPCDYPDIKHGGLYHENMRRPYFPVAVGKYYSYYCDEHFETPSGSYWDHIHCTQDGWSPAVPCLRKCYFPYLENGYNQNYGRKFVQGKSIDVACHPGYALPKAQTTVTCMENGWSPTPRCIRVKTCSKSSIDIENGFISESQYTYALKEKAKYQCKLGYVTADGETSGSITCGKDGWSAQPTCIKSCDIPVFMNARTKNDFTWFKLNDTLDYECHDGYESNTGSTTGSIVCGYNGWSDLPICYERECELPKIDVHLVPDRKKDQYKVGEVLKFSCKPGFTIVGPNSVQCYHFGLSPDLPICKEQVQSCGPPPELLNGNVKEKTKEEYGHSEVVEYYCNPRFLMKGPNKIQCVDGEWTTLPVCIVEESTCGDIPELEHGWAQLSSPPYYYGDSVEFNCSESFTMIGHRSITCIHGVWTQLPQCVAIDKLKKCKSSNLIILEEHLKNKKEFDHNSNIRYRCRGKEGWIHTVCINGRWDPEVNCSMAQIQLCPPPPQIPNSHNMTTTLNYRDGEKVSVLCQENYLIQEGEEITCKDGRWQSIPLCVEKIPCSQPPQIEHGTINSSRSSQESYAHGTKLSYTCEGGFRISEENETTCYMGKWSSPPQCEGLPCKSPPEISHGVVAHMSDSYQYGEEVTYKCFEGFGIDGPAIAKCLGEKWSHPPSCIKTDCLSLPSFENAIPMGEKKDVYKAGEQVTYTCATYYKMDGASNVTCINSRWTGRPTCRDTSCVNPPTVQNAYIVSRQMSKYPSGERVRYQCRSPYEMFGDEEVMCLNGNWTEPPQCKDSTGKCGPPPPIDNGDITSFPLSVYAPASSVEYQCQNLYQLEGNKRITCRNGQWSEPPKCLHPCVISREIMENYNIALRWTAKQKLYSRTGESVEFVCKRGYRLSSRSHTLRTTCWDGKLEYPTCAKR
UniProt P07357: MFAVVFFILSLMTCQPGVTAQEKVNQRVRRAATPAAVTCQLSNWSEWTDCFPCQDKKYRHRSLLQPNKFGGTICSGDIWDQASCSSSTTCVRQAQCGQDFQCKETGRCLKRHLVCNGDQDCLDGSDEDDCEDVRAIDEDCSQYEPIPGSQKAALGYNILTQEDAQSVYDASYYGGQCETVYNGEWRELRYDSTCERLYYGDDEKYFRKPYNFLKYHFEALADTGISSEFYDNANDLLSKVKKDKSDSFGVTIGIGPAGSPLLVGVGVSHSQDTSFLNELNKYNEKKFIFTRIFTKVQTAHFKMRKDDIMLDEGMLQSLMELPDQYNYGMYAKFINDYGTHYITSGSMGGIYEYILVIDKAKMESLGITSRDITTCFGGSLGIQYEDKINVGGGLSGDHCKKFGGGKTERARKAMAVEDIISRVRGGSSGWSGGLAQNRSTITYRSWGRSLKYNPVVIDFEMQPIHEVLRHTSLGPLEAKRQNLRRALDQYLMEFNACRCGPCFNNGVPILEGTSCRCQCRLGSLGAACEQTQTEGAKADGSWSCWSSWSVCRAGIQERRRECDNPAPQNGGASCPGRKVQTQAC
UniProt P01024: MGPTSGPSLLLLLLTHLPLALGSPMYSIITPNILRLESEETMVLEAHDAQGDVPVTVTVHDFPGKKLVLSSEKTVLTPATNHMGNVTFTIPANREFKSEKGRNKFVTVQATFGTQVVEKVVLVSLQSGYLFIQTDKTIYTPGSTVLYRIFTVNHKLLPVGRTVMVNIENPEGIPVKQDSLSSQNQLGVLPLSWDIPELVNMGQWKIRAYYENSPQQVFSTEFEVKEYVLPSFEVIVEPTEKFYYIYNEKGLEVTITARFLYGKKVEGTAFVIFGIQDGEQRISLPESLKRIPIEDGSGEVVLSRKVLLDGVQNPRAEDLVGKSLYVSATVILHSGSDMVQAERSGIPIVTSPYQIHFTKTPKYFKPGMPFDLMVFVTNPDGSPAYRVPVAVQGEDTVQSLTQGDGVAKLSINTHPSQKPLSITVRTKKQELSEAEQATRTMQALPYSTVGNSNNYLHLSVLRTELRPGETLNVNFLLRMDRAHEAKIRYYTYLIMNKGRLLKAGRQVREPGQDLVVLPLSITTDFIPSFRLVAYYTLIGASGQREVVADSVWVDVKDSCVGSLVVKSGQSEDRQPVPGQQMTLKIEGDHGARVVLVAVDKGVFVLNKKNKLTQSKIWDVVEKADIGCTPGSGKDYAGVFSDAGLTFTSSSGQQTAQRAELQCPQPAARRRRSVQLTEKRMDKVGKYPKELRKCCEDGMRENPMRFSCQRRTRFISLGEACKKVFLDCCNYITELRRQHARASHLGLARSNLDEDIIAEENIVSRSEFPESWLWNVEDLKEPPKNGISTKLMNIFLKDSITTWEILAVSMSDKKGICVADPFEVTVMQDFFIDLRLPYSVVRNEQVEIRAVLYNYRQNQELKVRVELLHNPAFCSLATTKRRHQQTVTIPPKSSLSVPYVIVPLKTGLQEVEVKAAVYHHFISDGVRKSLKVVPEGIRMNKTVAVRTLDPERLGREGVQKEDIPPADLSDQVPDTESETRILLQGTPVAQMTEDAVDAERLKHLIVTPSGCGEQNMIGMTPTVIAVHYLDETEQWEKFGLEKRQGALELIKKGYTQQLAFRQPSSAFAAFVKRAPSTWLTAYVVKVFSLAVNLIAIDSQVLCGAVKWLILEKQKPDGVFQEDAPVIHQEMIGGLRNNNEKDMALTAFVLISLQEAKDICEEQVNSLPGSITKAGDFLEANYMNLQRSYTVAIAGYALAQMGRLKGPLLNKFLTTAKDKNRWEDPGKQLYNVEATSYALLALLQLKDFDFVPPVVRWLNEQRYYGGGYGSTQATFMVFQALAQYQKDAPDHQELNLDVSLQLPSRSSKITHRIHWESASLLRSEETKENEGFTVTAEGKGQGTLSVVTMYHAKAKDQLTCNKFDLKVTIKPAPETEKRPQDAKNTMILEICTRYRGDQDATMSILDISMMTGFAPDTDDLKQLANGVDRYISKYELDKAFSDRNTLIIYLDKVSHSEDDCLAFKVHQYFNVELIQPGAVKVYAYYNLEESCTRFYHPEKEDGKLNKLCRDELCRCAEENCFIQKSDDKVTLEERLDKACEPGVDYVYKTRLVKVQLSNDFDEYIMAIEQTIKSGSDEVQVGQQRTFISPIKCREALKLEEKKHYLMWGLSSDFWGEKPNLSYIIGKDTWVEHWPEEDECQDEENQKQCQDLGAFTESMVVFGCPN
UniProt P07996, residues 19-1170: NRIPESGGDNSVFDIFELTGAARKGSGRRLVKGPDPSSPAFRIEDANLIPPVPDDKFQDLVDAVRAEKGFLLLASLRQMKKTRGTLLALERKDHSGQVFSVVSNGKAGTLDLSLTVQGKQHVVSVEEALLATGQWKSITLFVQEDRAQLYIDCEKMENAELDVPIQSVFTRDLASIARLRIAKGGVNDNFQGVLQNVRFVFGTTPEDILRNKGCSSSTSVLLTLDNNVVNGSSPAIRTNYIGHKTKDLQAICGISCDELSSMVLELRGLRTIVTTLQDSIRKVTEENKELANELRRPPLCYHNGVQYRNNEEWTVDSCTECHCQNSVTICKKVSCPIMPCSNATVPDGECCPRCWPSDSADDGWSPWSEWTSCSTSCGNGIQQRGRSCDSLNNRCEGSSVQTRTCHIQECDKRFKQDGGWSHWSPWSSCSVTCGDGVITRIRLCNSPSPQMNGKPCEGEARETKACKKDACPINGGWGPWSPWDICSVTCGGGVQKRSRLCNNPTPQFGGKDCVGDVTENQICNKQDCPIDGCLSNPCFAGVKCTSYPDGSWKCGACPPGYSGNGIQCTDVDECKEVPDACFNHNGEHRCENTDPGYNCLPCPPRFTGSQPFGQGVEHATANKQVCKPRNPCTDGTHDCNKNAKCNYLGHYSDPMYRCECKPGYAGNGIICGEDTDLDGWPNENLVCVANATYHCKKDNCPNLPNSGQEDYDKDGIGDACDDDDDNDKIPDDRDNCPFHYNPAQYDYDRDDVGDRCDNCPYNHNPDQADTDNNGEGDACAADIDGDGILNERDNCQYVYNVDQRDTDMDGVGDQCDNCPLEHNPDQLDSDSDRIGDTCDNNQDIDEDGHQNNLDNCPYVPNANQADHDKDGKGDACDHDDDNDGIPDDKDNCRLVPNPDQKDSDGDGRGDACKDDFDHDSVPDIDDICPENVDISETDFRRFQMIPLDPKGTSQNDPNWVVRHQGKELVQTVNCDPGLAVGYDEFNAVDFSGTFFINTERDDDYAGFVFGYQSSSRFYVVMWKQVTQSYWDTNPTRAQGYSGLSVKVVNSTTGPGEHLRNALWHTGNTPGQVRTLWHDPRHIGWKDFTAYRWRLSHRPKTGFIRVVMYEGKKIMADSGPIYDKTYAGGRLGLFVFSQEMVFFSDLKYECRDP

Experiments:
complement C5 = complement C5 (UniProt P01031); test: ELISA; binding ELISA with platelet-isolated (untagged) TSP-1; Supplemental Figure 1; details not shown; both purified
complement factor H (FH) = complement factor H (FH) (UniProt P08603); test: as above
complement C8 = complement C8 (UniProt P07357); test: as above
complement C3 = complement C3 (UniProt P01024); test: as above
[1] = biological target: recombinant full-length thrombospondin-1 (TSP-1) (human) (UniProt P07996); test: SPR; BIAcore 3000; TSP-1 bound covalently to CM5 chips at 0.1 μM; complement proteins flowed at 12.3, 37.03, 111.1, 333.3, 1,000 nM in PBS plus 0.05% Tween 20; 1:1 Langmuir binding model; average of 3 measurements; both purified

binding (complement C5) | binding (complement factor H (FH)) | binding (complement C8) | binding (complement C3) | binding [1] | Substance
binds | binds | binds | binds |  | platelet-isolated TSP-1 (p-TSP-1) (from UniProt P07996 19-1170)
 |  |  |  | binds weakly | complement C3b (from UniProt P01024 23-667; P01024 749-1663)
